Data published in US20140308271A1 (GLENMARK PHARMACEUTICALS S A, published 2014).
No constants are given. Whether binding was seen depends on the method and setting. Binding calls can cover weak binding; strength is not graded here. Sequences can lack the tags named with a protein.

Key:
[1] = target: extracellular part of mouse (mus musculus) TL1A protein (mouse); assay: ELISA on coated extracellular part of TL1A (legend of FIG. 4)
[2] = target: extracellular part of mouse (mus musculus) TL1A protein (mouse); assay: ELISA on coated extracellular part of TL1A, HRP anti-human IgG detection
[3] = target: extracellular part of mouse (mus musculus) TL1A protein (mouse); assay: ELISA on coated extracellular part of TL1A (2 µg/mL), dose dilution of chimeric 5G6, HRP anti-human IgG

Measured: binding

B1: 5G6 chimeric antibody (murine 5G6 variable domains fused to human IgG1 heavy chain constant domains and a human kappa constant domain) (antibody, V domains shown)
VH: QVQLQQPGSVLVRPGASVKVSCKASGYTFTSSWMHWAKQRPGQGLEWIGEIHPNSGGTNYNEKFKGKATLTVDTSSSTAYVDLSSLTSEDSAVYYCARGDYYGYVSWFAYWGQGTLVTVSS
VL: DIQMNQSPSSLSASLGDTITITCHASQNINVLLSWYQQKPGNIPKLLIYKASNLHTGVPSRFSGSGSGTGFTFTISSLQPEDIATYYCQQGQSYPYTFGGGTKLEIKR
notes: Human IGHG1 / kappa chimera; also called Chimera; parental 5G6
binds: all assays above
